Values from PubChem BioAssay AID743454 (Peter MacCallum Cancer Centre, 2014)

Aim: 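Genes whose loss kills vorinostat-resistant colon cancer cells under vorinostat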 (primary screen)
Cells: human HCT116-VR colon cancer cells, selected for vorinostat resistance
Reagent: siRNA pool against human genes, 40 nM siRNA pool
Duration: vorinostat for 24 h, read-out about 72 h after transfection
Challenge: vorinostat at 2.5 µM final
Measurement: 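Cell viability by CellTiter-Fluor and caspase 3/7 activity by luminescence, each scaled to mock wells per plate, duplicates averaged, then robust z-scored over all plates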
Direction: viability robust z-score: higher = more viable cells than screen typical; caspase robust z-score: higher = more caspase 3/7 activity than screen typical
Hit rule: 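Hits are knock-downs in viability class RV1/RV2 or caspase class CA1/CA2, excluding ones that killed cells in the no-drug cell-count arm; hits then retested with single siRNAs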
In all, the deposit lists about 18,000 reagents; this is a random part of them. 450 of all reagents (2.5%) count as active. 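Single biological run; no consistent viability z cut-off exists, so the class columns, not z-scores, define the calls.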

target gene | viability hit class | caspase hit class | viability robust z-score | caspase robust z-score | outcome
ZNF793 | no change | no change | 0.48 | 0.08 | inactive
ATG9A | no change | no change | -0.43 | 1.72 | inactive
UPRT | no change | no change | 0.11 | -0.36 | inactive
GPRIN2 | no change | no change | -0.1 | 0.66 | inactive
CT83 | no change | no change | 1.37 | -0.02 | inactive
GOLGA8G | no change | no change | 1.48 | 0.06 | inactive
CCR9 | no change | no change | -1.02 | 0.61 | inactive
IFNGR2 | no change | no change | 0.56 | 0.74 | inactive
FCGR3B | no change | no change | -0.33 | -0.14 | inactive
KCNT1 | no change | no change | -1.46 | 4.91 | inactive
AFG2A | no change | no change | 0.02 | -0.74 | inactive
SLFN12 | no change | no change | 0.24 | 1.13 | inactive
TRIM13 | no change | no change | -0.11 | -0.9 | inactive
TERB2 | no change | no change | 0.82 | 1.08 | inactive
ARGLU1 | no change | no change | -1.18 | -0.29 | inactive
LRMDA | no change | no change | -0.18 | -1.23 | inactive
KANK2 | no change | no change | 1.57 | -0.63 | inactive
LPXN | no change | no change | -0.14 | -0.43 | inactive
NDUFB3 | no change | no change | -0.35 | -0.87 | inactive
FBXL7 | no change | no change | 0.66 | -0.79 | inactive
AWAT1 | no change | no change | 1.6 | 3.2 | inactive
ITGA8 | no change | no change | 0.38 | 0.48 | inactive
POGK | no change | no change | 1.05 | -0.77 | inactive

3 consecutive reagents already listed:
target gene | viability hit class | caspase hit class | viability robust z-score | caspase robust z-score | outcome
NDUFB3 | no change | no change | -0.35 | -0.87 | inactive
FBXL7 | no change | no change | 0.66 | -0.79 | inactive
AWAT1 | no change | no change | 1.6 | 3.2 | inactive
